# The other results are listed elsewhere or left out.
# Sequences of proteins named here, by UniProt entry; tags and fusion partners are left off. A change or cut given only in a name is not applied to a line headed by its entry.
# UniProt Q9H7Z3: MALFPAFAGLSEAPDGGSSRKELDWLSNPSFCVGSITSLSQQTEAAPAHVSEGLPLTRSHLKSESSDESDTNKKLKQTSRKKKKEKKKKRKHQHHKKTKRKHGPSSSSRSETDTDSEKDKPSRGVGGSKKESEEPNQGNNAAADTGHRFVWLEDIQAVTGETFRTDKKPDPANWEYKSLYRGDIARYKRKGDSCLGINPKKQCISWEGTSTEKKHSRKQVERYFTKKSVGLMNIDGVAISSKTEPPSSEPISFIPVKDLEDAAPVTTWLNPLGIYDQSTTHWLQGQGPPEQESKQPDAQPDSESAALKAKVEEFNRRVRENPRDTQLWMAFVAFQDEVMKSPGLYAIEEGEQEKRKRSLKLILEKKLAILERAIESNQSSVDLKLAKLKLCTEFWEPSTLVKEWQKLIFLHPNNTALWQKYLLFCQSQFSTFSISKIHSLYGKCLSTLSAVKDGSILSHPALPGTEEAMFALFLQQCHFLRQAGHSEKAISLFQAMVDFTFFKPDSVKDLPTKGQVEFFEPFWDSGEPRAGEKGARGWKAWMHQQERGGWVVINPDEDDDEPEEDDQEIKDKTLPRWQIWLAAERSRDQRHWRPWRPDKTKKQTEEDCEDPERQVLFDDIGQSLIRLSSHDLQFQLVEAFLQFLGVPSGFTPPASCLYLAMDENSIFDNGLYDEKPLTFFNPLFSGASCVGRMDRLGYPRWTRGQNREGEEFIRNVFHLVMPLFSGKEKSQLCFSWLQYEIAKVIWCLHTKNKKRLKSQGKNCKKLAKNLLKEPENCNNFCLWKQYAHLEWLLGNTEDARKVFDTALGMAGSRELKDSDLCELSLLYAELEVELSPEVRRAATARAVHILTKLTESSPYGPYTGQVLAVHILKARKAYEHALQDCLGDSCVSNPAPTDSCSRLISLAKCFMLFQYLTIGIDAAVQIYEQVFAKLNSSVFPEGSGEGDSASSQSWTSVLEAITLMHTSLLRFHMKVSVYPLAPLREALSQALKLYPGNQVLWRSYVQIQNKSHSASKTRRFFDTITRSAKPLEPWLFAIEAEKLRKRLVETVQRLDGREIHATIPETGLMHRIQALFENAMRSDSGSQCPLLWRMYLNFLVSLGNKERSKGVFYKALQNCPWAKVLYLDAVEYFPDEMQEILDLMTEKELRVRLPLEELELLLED
# UniProt P04150: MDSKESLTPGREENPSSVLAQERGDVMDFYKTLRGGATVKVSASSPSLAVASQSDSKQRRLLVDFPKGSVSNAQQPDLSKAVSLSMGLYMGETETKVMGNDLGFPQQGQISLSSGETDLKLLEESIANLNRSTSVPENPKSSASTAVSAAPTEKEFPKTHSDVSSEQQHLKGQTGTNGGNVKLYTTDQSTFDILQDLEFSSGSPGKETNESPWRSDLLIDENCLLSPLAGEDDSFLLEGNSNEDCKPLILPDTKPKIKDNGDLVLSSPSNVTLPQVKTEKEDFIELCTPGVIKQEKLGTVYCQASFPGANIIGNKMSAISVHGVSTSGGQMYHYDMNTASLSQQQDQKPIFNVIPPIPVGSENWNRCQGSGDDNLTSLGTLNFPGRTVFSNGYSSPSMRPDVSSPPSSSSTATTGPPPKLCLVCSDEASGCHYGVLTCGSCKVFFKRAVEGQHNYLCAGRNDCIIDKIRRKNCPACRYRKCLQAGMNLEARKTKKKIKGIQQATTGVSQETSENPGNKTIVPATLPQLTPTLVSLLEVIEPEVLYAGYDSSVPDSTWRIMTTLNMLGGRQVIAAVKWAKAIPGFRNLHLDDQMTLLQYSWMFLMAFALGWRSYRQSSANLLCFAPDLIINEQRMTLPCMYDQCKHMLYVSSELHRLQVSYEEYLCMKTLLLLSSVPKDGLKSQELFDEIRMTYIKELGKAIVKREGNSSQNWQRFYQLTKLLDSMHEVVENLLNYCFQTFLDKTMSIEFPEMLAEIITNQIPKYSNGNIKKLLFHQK
# UniProt A6NEC2: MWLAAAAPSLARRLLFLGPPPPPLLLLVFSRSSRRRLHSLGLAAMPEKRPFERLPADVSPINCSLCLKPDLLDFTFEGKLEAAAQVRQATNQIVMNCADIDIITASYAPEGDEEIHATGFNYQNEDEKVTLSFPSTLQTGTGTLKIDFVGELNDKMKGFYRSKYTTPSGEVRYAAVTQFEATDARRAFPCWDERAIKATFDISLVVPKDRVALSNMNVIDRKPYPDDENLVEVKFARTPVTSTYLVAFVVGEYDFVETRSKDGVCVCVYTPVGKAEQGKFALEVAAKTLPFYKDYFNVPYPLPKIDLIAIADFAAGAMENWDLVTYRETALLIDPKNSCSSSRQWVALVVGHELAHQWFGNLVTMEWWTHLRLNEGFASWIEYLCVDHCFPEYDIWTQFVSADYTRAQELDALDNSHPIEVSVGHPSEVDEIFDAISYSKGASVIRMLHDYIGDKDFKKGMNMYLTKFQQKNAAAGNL
# UniProt O43847: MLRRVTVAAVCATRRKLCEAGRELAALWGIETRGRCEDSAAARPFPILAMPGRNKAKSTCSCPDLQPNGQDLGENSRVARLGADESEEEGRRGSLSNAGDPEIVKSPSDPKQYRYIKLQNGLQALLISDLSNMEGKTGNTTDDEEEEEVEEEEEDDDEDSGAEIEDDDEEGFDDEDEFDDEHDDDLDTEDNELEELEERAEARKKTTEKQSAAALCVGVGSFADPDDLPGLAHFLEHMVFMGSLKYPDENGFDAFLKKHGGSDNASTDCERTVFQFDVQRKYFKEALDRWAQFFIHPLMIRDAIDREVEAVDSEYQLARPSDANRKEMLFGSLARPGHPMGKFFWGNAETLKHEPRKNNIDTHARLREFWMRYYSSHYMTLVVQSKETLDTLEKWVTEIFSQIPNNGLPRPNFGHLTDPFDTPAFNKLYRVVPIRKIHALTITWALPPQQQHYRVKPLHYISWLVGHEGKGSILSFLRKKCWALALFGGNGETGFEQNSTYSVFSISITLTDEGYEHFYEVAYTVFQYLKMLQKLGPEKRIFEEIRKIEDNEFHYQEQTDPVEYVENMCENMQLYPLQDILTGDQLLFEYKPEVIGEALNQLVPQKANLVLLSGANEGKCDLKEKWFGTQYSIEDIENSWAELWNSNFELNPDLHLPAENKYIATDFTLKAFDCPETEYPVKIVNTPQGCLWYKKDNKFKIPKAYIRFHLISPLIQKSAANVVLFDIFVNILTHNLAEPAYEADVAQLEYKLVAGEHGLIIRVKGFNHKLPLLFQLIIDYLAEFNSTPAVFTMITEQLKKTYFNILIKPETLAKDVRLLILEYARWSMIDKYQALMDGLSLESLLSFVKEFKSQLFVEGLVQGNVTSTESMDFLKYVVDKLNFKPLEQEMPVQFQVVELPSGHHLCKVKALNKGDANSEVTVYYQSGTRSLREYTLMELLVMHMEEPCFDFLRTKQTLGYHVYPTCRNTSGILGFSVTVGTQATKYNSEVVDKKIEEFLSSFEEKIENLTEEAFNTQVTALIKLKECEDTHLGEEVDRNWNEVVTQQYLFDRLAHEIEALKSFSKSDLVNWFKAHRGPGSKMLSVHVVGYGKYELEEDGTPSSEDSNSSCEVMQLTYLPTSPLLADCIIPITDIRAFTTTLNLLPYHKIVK
# UniProt P15531, whole entry: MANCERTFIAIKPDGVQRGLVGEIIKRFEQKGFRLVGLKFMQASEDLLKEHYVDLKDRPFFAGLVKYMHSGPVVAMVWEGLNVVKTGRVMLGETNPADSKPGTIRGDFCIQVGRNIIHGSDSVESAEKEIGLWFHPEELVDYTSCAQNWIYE
# UniProt P78549: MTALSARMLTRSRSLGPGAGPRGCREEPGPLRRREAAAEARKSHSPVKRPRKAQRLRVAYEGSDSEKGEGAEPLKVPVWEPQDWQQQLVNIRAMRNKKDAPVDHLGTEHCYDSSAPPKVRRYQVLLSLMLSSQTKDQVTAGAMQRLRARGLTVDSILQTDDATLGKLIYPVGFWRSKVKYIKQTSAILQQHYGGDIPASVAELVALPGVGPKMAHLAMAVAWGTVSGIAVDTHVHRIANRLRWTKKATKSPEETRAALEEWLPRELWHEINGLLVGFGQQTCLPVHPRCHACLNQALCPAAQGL
# UniProt Q8NDH3: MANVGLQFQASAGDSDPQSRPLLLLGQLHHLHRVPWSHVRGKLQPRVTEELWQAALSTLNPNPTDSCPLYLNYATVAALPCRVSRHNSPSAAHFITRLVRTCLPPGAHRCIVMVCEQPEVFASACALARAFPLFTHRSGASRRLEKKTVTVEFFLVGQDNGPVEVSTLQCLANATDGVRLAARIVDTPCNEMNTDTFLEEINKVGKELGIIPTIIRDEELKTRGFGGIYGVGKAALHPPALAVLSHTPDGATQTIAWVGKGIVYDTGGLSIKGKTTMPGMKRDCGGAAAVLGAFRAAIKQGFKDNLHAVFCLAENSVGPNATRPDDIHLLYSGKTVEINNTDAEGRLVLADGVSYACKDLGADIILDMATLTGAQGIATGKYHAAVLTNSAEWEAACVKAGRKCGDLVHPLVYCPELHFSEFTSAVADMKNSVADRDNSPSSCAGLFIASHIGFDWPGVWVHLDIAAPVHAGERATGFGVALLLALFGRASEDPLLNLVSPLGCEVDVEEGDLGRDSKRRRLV
# UniProt O96028: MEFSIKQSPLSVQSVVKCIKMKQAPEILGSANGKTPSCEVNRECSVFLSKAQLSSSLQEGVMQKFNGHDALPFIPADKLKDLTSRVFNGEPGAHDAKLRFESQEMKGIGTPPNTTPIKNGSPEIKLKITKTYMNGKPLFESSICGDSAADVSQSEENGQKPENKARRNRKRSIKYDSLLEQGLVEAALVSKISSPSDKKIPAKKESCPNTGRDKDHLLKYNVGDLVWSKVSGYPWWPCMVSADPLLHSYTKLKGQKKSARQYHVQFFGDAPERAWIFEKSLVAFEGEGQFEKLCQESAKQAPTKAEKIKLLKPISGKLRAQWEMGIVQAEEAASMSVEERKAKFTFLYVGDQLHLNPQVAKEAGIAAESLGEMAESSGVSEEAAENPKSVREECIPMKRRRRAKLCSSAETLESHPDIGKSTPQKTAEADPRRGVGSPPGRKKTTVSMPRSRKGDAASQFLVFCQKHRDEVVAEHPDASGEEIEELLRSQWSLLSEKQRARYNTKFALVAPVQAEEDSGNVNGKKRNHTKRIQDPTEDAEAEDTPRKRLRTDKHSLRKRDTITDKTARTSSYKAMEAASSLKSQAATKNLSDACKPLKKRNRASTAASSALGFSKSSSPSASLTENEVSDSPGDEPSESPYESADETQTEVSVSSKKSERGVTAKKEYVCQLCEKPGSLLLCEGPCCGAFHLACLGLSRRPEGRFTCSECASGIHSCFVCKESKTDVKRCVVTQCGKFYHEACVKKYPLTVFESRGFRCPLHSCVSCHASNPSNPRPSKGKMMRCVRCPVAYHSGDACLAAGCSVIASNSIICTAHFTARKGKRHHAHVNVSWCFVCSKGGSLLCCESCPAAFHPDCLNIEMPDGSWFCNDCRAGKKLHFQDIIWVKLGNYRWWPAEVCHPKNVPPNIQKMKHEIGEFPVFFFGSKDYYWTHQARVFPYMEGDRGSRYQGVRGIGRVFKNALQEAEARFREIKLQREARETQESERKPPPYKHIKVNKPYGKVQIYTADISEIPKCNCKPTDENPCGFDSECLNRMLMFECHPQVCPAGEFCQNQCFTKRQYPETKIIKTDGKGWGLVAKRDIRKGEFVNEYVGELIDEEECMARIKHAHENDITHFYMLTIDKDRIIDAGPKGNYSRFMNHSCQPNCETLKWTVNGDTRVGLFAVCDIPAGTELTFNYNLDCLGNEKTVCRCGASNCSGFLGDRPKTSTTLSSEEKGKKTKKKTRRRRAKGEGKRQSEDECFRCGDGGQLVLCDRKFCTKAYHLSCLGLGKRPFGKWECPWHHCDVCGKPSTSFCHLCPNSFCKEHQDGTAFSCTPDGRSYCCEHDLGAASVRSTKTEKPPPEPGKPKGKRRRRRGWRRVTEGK
# UniProt P30419: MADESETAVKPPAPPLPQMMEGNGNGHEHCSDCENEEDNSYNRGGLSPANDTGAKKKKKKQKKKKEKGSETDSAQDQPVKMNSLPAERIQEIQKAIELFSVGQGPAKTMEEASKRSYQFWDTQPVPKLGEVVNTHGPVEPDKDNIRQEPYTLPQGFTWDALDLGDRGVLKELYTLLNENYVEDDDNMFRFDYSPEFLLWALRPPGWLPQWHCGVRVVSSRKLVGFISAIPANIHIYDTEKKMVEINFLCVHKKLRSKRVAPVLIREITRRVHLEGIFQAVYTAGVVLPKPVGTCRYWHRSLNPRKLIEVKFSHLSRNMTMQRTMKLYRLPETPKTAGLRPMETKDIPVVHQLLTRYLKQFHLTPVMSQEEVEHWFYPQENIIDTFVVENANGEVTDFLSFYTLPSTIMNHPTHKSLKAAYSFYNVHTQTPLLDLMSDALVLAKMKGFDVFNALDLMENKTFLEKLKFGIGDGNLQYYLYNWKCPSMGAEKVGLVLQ
# UniProt Q86WQ0: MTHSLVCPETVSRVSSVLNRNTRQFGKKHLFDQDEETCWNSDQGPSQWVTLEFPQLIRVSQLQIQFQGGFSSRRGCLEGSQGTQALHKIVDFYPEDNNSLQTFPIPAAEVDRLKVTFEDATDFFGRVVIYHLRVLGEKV
# Compound: Cc1cc(ccc1-c1ccccc1)C(=O)N1CCCN(CC1)C(=O)CCl [compound 10]
# Experiment: probe-labelled cysteine peptide fold change vs DMSO (competition) (log2 fold change); higher = less target engagement (more negative = stronger competition)
# Conditions: THP-1, incubation time: 4 h
# 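Also: competitive profiling in live THP-1 cells: cysteine peptides tagged with an iodoacetamide desthiobiotin (IA-DTB) probe, intensity after compound treatment relative to DMSO-treated cells.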
Target,probe-labelled cysteine peptide fold change (10 µM),probe-labelled cysteine peptide fold change (50 µM)
NOTCH1_P46531_1225_GTQGVHCEINVDDCNPPVDPVSR (UniProt P46531),-0.184,-0.294
NRDE2_Q9H7Z3_608_QTEEDCEDPER (UniProt Q9H7Z3),-0.087,0.221
NTMT1_Q9BV86_64_TGTSCALDCGAGIGR (UniProt Q9BV86),0.0971,0.195
NR3C1_P04150_463_NDCIIDK (UniProt P04150),-0.0776,-0.53
NPEPPSL1_A6NEC2_339_NSCSSSR (UniProt A6NEC2),-0.165,-0.696
NRDC_O43847_674_AFDCPETEYPVK (UniProt O43847),-0.047,0.101
NME1_P15531_145_EIGLWFHPEELVDYTSCAQNWIYE (UniProt P15531),-0.261,-0.0646
NSD1_Q96L73_715_QKPLISNSHTDHLMGCTK (UniProt Q96L73),-0.125,-0.494
NOP58_Q9Y2X3_205_IISDNLTYCK (UniProt Q9Y2X3),-0.102,-0.187
NTHL1_P78549_290_ELWHEINGLLVGFGQQTCLPVHPR (UniProt P78549),0.0835,0.0158
NOL9_Q5SY16_637_TVNCLLVGAIAIPHCVLK (UniProt Q5SY16),-0.0765,-0.381
NMNAT1_Q9HAN9_111_LEASDCDHQQNSPTLERPGR (UniProt Q9HAN9),-0.477,-0.0623
NOL10_Q9BSC4_147_DFSYHYPSCDLYFVGASSEVYR (UniProt Q9BSC4),-0.372,-0.0128
NPEPL1_Q8NDH3_284_DCGGAAAVLGAFR (UniProt Q8NDH3),-0.000299,-0.107
NSDHL_Q15738_40_RCTVIGGSGFLGQHMVEQLLAR (UniProt Q15738),-0.109,-0.144
NOM1_Q5C9Z4_696_EIIHVLMDCCLQEK (UniProt Q5C9Z4),0.202,-0.00117
NRDC_O43847_1027_ECEDTHLGEEVDRNWNEVVTQQYLFDR (UniProt O43847),0.0585,0.155
NRDC_O43847_1027_LKECEDTHLGEEVDRNWNEVVTQQYLFDR (UniProt O43847),-0.22,-0.499

# Taken from above:
# Under probe-labelled cysteine peptide fold change (50 µM), NPEPPSL1_A6NEC2_339_NSCSSSR (UniProt A6NEC2) shows -0.696
# Under probe-labelled cysteine peptide fold change (50 µM), NRDC_O43847_1027_LKECEDTHLGEEVDRNWNEVVTQQYLFDR (UniProt O43847) shows -0.499

# Later entries:

Target,probe-labelled cysteine peptide fold change (10 µM),probe-labelled cysteine peptide fold change (50 µM)
NSUN4_Q96CB9_258_VLVDVPCTTDR (UniProt Q96CB9),-0.104,-0.136
NPC1_O15118_177_ALGLLCGK (UniProt O15118),-0.118,-0.0591
NOTCH2_Q04721_364_VASFSCMCPEGK (UniProt Q04721),-0.00588,-0.066
NSUN2_Q08J23_271_ILCDVPCSGDGTMR (UniProt Q08J23),-0.105,-0.277
NT5C2_P49902_433_VTHDMDMCYGMMGSLFR (UniProt P49902),0.071,-0.038
NSD2_O96028_1323+1324_SYCCEHDLGAASVR (UniProt O96028),-0.0346,-0.49
NNT_Q13423_1073_TCDALQAK (UniProt Q13423),-0.31,-0.0885
NOL6_Q9H6R4_256_LHPCPPPDFFRPCR (UniProt Q9H6R4),-0.126,-0.0602
NOP14_P78316_457_CNHPSLAEGNK (UniProt P78316),-0.017,0.0346
NOL6_Q9H6R4_739_LDKPCPAYVEPMTVVCHLEGSGQWPQDAEAVQR (UniProt Q9H6R4),-0.0229,0.111
NMT1_P30419_294_VHLEGIFQAVYTAGVVLPKPVGTCR (UniProt P30419),-0.159,0.162
NOP56_O00567_211_IINDNATYCR (UniProt O00567),0.127,0.322
NLRX1_Q86UT6_767_KLGLQLNSLGPEACK (UniProt Q86UT6),0.0892,-0.182
NPEPL1_Q8NDH3_504_ASEDPLLNLVSPLGCEVDVEEGDLGR (UniProt Q8NDH3),-0.334,0.172
NR2C2AP_Q86WQ0_76_RGCLEGSQGTQALHK (UniProt Q86WQ0),0.0312,0.174
NOTCH1_P46531_922_NCETDIDDCRPNPCHNGGSCTDGINTAFCDCLPGFR (UniProt P46531),-0.181,0.000888
NRDC_O43847_906_LNFKPLEQEMPVQFQVVELPSGHHLCK (UniProt O43847),0.221,0.0671

# — the supplement of paper PMC12067093, “Discovery and optimisation of a covalent ligand for TRIM25 and its application to targeted protein ubiquitination” (Chemical Science, 2025)
